# PubChem BioAssay AID2685 (National Center for Advancing Translational Sciences (NCATS), 2010)
# In all, about 320,000 compounds went through this assay and about 2,100 (0.66%) were called active. This list was built around the results that the source calls inconclusive (neither active nor inactive); the mix of calls is not that of the screen. Calls come from the whole dose curve; as a rule, active = well fitted inhibition curve with a large enough effect in the signal ratio, with a control signal flat (not every such curve was filed as active); inconclusive = small, poorly fitted or top-dose-only effect, or effect the other way, or a change in a side signal; inactive = flat fitted curve, though single readings scatter; the % refers to the signal ratio. Where the call is inconclusive, the potency comes from a doubtful curve fit.
# Assay: qHTS Assay for Lipid Storage Modulators in Drosophila S3 Cells
# Conditions: BODIPY lipid droplet fluorescence, 18-24 h, cells fed with added oleic acid; lipid storage change, negative = inhibition: at 46.1 µM (top of the series) unless noted
# Summary of the method: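 Laser-scanning cytometry quantifies lipid droplet accumulation (500–530 nm total intensity; droplet/cell object ratio) in oleic acid-fed (400 uM added) Drosophila S3 cells treated with a concentration series. 20 uM Triacsin C defined 100% inhibition.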
# % is set by controls: 0 for no effect and ±100 for the full control effect; potency is the fitted concentration of half-maximal effect.
Compound,"lipid storage change, negative = inhibition",outcome,Potency
Cc1ccc(N(CC(=O)NC2CC2)S(=O)(=O)c2ccccc2)c(C)c1,inconclusive: 20%,,
O=C(COC(=O)c1cccnc1Cl)Nc1ncc(Cl)cc1Cl,inconclusive: 7.97%,,
CC(=O)C1=C(C)Nc2cc(C(F)(F)F)ccc2S1,inconclusive: 14.2%,,
CC(C)(C)c1ccc(C(=O)N2CCNC(=O)C2CC(=O)Nc2ccc(F)cc2)cc1 (configuration not stated),inconclusive: -5.55%,,
CCN1CCN(c2ccc(S(=O)(=O)N3CCCCC3)cc2NC(=O)c2cccc(OC(F)F)c2)CC1,inconclusive: -56.8%,,
c1ccc2nc3[nH]cnc3nc2c1,inconclusive: -6.57%,,
CCC(=O)Nc1ccc(Oc2ccc3c(c2)C(=O)NC3=O)cc1,,inactive [at 46.1 µM],
Cc1ccn2c(=O)nc(SCC(=O)N3CCN(c4ccccc4)CC3)nc2c1,inconclusive,,
Cc1ccc(N(C(=O)c2ccc(Br)o2)C2C=CS(=O)(=O)C2)cc1 (configuration not stated),inconclusive: -17.6%,,
CCCCNC(=O)OCCSCCS(=O)(=O)c1ccc(Cl)cc1,inconclusive: 0.376%,,
O=C(Nc1cc(C(F)(F)F)ccc1-n1cncn1)C1CC1,inconclusive: 87.7%,,
Cc1noc(C)c1CS(=O)(=O)c1ccc(Br)cc1,,,"inconclusive: 4.11 µM [rising, partial curve]"
COC(=O)N/N=C\c1ccc(-c2cc(Cl)c(Cl)cc2Cl)o1,,,"inconclusive: 0.259 µM [activator, full curve, poor fit]"
COc1ccc(S(N)(=O)=O)cc1C(=O)NC1CCCc2ccccc21 (configuration not stated),,,"inconclusive: 29.1 µM [activator, single point]"
CCOc1ccc(CCNC(=O)c2cccc(S(=O)(=O)N3CCOCC3)c2)cc1OCC,inconclusive: 5.92%,,
OCCN(Cc1ccccc1)CC1CCCCC1,inconclusive: -12.8%,,
Cc1ccc(C)c2c1cc(C)c1nnc(SCc3ccccn3)n12,inconclusive: 62.4%,,
CCOc1ccc(N(C(=O)c2ccc(S(=O)(=O)N3CCCC3)cc2)C2C=CS(=O)(=O)C2)cc1 (configuration not stated),inconclusive: 5.89%,,
CN(CC(=O)Oc1ccc(-c2nnco2)cc1)S(=O)(=O)c1ccc(F)cc1,inconclusive: -15.7%,,
COc1cc(NC(=O)c2ccccc2OCc2ccccc2)cc(OC)c1OC,,,"inconclusive: 32.6 µM [falling, single point]"
Fc1ccc(CO/N=C2\CCCc3nonc32)cc1,inconclusive: -62.4%,,
O=C(O)c1cccc(N2CCCC2)c1,inconclusive: -2.79%,,
CC(C)NC(=S)N1CCN(C/C=C/c2ccccc2)CC1,,,"inconclusive: 0.0065 µM [activator, full curve, poor fit]"
COc1ccc(NC(C)C(=O)N/N=C/c2ccccc2OCc2cccc(Br)c2)cc1 (configuration not stated),inconclusive: 25.9%,,
CCOC(=O)C(NC(=O)c1ccc(OC)cc1)(Nc1cc(C)on1)C(F)(F)F (configuration not stated),,,"inconclusive: 1.03 µM [activator, partial curve]"
Cn1cnnc1SCC(=O)NC(=O)NC1CCCC1,,,"inconclusive: 0.164 µM [falling, full curve, poor fit]"

Compound,"lipid storage change, negative = inhibition",outcome,Potency
CC1(C)CC(=O)C(C(c2ccc(F)cc2)C2C(=O)CC(C)(C)CC2=O)C(=O)C1,inconclusive: -3.84%,,
CCc1ccc(-c2cc(C(=O)Nc3c(C)n(C)n(-c4ccccc4)c3=O)c3ccccc3n2)s1,inconclusive: 73.7%,,
COc1ccccc1/C=C/C(=O)c1ccc(Cl)cc1,,,active: 4.61 µM
N#Cc1c(-c2ccco2)ccn(Cc2cccc(F)c2)c1=O,,,"inconclusive: 6.51 µM [falling, single point]"
COc1cc(OC)cc(C(=O)NCC2CCCN(C(=O)c3csc(C(C)C)n3)C2)c1 (configuration not stated),inconclusive: -53%,,
COc1cccc(-c2c(NC(C)=O)n(C)c3ccccc3c2=O)c1,inconclusive: -79.6%,,
O=C(O)CN1CCCCCC1=O,inconclusive: 72.7%,,
COc1ccc(Br)cc1CN(C)C(=O)Cc1ccc(OC)c(S(=O)(=O)N2CCOCC2)c1,,,active: 10.3 µM
Cc1oc(-c2cccc3ccccc23)nc1CN1CCN(c2ncnc3ccccc23)CC1,,,"inconclusive: 20.6 µM [falling, single point]"
CCc1ccc(NC(=O)c2ccc(-n3cncn3)c([N+](=O)[O-])c2)cc1,inconclusive: 16.6%,,
C=CCC1NS(=O)(=O)OCC1C(C)C (configuration not stated),,,"inconclusive: 29.1 µM [activator, single point]"
CCC1=Nc2cc(C(=O)NCCCN3CCOCC3)ccc2Sc2ccccc21,,,"inconclusive: 20.6 µM [activator, single point]"
O=C(O)c1ccccc1C(=O)Nc1c(-c2ccccc2)nc2ccccn12,inconclusive: 88.2%,,
COc1ccccc1CNC(=O)COC(=O)CNS(=O)(=O)c1ccc(C)cc1,inconclusive: 15.7%,,
O=C(CNS(=O)(=O)/C=C/c1ccccc1)OC1CCOC1=O (configuration not stated),inconclusive: -11.3%,,
COc1cc(S(=O)(=O)N2CCOCC2)cc(C(=O)c2nccn2C)c1OC,inconclusive: -12%,,
CCC1CCCCN1S(=O)(=O)c1ccc2c(c1)CCN2C(C)=O (configuration not stated),inconclusive: 16.4%,,
CCC1Oc2ccccc2N(CC(=O)NC2CCCCC2)C1=O (configuration not stated),,inactive [at 46.1 µM],
C=CCC(=O)N1CCCC(CO)(Cc2ccc(F)cc2F)C1 (configuration not stated),inconclusive: 8.83%,,
Cc1ccc(-n2c(C)nnc2SC(C)C(=O)N2CCCC2)cc1 (configuration not stated),inconclusive: 9.31%,,
COc1cccc(/C=C/C(=O)Nc2ccc3c(c2)OCCO3)c1OC,inconclusive: 15.7%,,
CCC(CC)NC(=O)CON=C1c2ccccc2-c2ccccc21,inconclusive: -11.2%,,
Cc1ccc(C(=O)N2CCN(c3ccc(C(F)(F)F)cn3)CC2)c(C)c1,inconclusive: 329%,,
Cc1ccccc1N=CC1=C(O)c2ccccc2C1=O,,,"inconclusive: 6.51 µM [falling, single point]"
COc1ccc(C2c3c(c(C)c(C)oc3=O)Oc3c(C)c(C)oc(=O)c32)cc1,,,"inconclusive: 5.8 µM [activator, full curve, poor fit]"
Cc1ccc(SCC(=O)N2N=CCC2c2ccccc2)cc1 (configuration not stated),inconclusive: -36.7% [cytotoxic] [at 0.00295 µM],,

# Quoted at random: 4 compounds from above
Compound,"lipid storage change, negative = inhibition",outcome,Potency
Cc1ccc(C)c2c1cc(C)c1nnc(SCc3ccccn3)n12,inconclusive: 62.4%,,
Cc1ccc(C(=O)N2CCN(c3ccc(C(F)(F)F)cn3)CC2)c(C)c1,inconclusive: 329%,,
CCC(=O)Nc1ccc(Oc2ccc3c(c2)C(=O)NC3=O)cc1,,inactive [at 46.1 µM],
CCc1ccc(-c2cc(C(=O)Nc3c(C)n(C)n(-c4ccccc4)c3=O)c3ccccc3n2)s1,inconclusive: 73.7%,,
